Measurements reported in PubChem BioAssay AID1259331 (Drosophila RNAi Screening Center, 2017)

Aim: 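Fly transmembrane-protein genes that affect zinc toxicity in cultured cells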 (primary screen)
Cell system: Drosophila S2R+ cells
Reagent: long dsRNA against Drosophila genes
Timing: 5 days (4 days knock-down, then 1 day zinc)
Conditions: zinc chloride at 15 mM final level for 1 day
Measurement: 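Luminescent ATP assay standing in for viability; Z score is the mean over three replicate plates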
Reading the numbers: mean Z score: higher = more ATP than other wells, better survival under zinc; ATP luminescence: higher = more ATP, more viable cells
Active means: 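a reagent is called a hit when its Z score is above 1.5 or below -1.5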
Calls: active = hit, ATP up or down; inactive = not a hit
This is one part, drawn at random, of about 3,100 deposited reagents. 126 of them (4.1%) were called active. 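Calls are per reagent; zinc was so toxic that few knock-downs lowered ATP further, so most hits raise ATP.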 The raw values are shown without normalisation. A plus sign joins genes that one reagent is predicted to hit. Reagent sequences are not shown. Not given: the amount of reagent.

Gene | dsRNA | mean Z score | ATP luminescence, replicate 1 | ATP luminescence, replicate 2 | call
Sur (GeneID 34350) | DRSC03447 | 0.0654 | 57134 | 57151 | inactive
Sur (GeneID 34350) | DRSC27276 | -0.137 | 46640 | 60375 | inactive
Dop2R (GeneID 33007) | DRSC20683 | 2.24 | 64611 | 71333 | active
Dop2R (GeneID 33007) | DRSC29286 | 0.967 | 72487 | 80193 | inactive
CG6901 (GeneID 41977) | DRSC16129 | 0.0408 | 34850 | 58969 | inactive
CG6901 (GeneID 41977) | DRSC26477 | -0.165 | 71265 | 48732 | inactive
ATP8B (GeneID 41469) | DRSC14961 | -0.284 | 35942 | 49640 | inactive
CG8630 (GeneID 41629) | DRSC16441 | 1.7 | 44771 | 84970 | active
CG8630 (GeneID 41629) | DRSC24081 | 1.11 | 66649 | 74867 | inactive
Tsp42Eq (GeneID 35628) | DRSC06180 | 0.22 | 77165 | 77028 | inactive
Ranbp21 (GeneID 32970) | DRSC19447 | 0.485 | 51669 | 52186 | inactive
Ranbp21 (GeneID 32970) | DRSC39764 | 0.337 | 60546 | 61421 | inactive
NtR (GeneID 43935) | DRSC04628 | -0.486 | 41325 | 40142 | inactive
NtR (GeneID 43935) | DRSC27686 | -0.855 | 40502 | 39850 | inactive
Octbeta3R (GeneID 3885573) | DRSC21853 | -0.281 | 43159 | 42868 | inactive
Octbeta3R (GeneID 3885573) | DRSC25327 | 0.729 | 71762 | 73512 | inactive
CG7882 (GeneID 35520) | DRSC04899 | 0.165 | 1.13e5 | 79348 | inactive
Alk (GeneID 53425) | DRSC23342 | 0.198 | 52144 | 48732 | inactive
Alk (GeneID 53425) | DRSC36972 | -0.126 | 45691 | 46211 | inactive
Alk (GeneID 53425) | DRSC36973 | -0.00395 | 49195 | 46897 | inactive
PIG-T (GeneID 31772) | DRSC17774 | -0.28 | 58557 | 64319 | inactive
PIG-T (GeneID 31772) | DRSC39821 | 0.19 | 58574 | 59260 | inactive
Cad86C (GeneID 41302) | DRSC15611 | -0.324 | 33644 | 56845 | inactive
Cad86C (GeneID 41302) | DRSC27602 | 1.3 | 78023 | 76819 | inactive
Cad86C (GeneID 41302) | DRSC28094 | -0.0567 | 60975 | 50155 | inactive
Gp210 (GeneID 35512) | DRSC04861 | 0.492 | 1.43e5 | 65279 | inactive
Gp210 (GeneID 35512) | DRSC39541 | 0 | 48234 | 55556 | inactive
Tsp42Ei (GeneID 35618) | DRSC06189 | 0.116 | 79223 | 76702 | inactive
Tsp42Ei (GeneID 35618) | DRSC26994 | -0.121 | 60666 | 52761 | inactive
CG2991 (GeneID 33488) | DRSC00559 | -0.26 | 52024 | 53121 | inactive
CG2991 (GeneID 33488) | DRSC26300 | 0.632 | 69275 | 69738 | inactive
Gr64b + Gr64c | DRSC08444 | -0.267 | 66154 | 57923 | inactive
Gr64b + Gr64c | DRSC08445 | 0.119 | 78537 | 65298 | inactive
Gr64b + Gr64c | DRSC27568 | 0.097 | 61938 | 59483 | inactive
Ipo9 (GeneID 41367) | DRSC16813 | -0.538 | 38650 | 50618 | inactive
CG31600 (GeneID 318834) | DRSC30096 | -0.0289 | 48303 | 47480 | inactive
CG31600 (GeneID 318834) | DRSC39836 | 0.0527 | 57511 | 56379 | inactive
rho (GeneID 38168) | DRSC08734 | 0.0187 | 69361 | 74558 | inactive
rho (GeneID 38168) | DRSC39615 | -0.447 | 53824 | 48749 | inactive
CG13907 (GeneID 38104) | DRSC08377 | -0.625 | 26908 | 26068 | inactive
CG13907 (GeneID 38104) | DRSC25983 | -0.181 | 58180 | 57700 | inactive
CG14194 (GeneID 32908) | DRSC19549 | 4.51 | 99260 | 93976 | active

Not a retest: an excerpt of the list.
Gene | dsRNA | mean Z score | ATP luminescence, replicate 1 | ATP luminescence, replicate 2 | call
Gp210 (GeneID 35512) | DRSC04861 | 0.492 | 1.43e5 | 65279 | inactive
Gp210 (GeneID 35512) | DRSC39541 | 0 | 48234 | 55556 | inactive
Tsp42Ei (GeneID 35618) | DRSC06189 | 0.116 | 79223 | 76702 | inactive
Tsp42Ei (GeneID 35618) | DRSC26994 | -0.121 | 60666 | 52761 | inactive
CG2991 (GeneID 33488) | DRSC00559 | -0.26 | 52024 | 53121 | inactive
CG2991 (GeneID 33488) | DRSC26300 | 0.632 | 69275 | 69738 | inactive
Gr64b + Gr64c | DRSC08444 | -0.267 | 66154 | 57923 | inactive
Gr64b + Gr64c | DRSC08445 | 0.119 | 78537 | 65298 | inactive
Gr64b + Gr64c | DRSC27568 | 0.097 | 61938 | 59483 | inactive

Next reagents follow.
Gene | dsRNA | mean Z score | ATP luminescence, replicate 1 | ATP luminescence, replicate 2 | call
CG31259 (GeneID 41010) | DRSC14366 | -0.06 | 41344 | 58542 | inactive
CG31259 (GeneID 41010) | DRSC39814 | 0.344 | 62810 | 59226 | inactive
CG32687 (GeneID 31980) | DRSC18210 | -0.153 | 40228 | 44685 | inactive
CG32687 (GeneID 31980) | DRSC18237 | -0.988 | 48274 | 51098 | inactive
CG32687 (GeneID 31980) | DRSC37079 | -0.723 | 33764 | 41771 | inactive
Ir68b (GeneID 39378) | DRSC10251 | -0.123 | 72817 | 57243 | inactive
Ir68b (GeneID 39378) | DRSC39424 | 0.247 | 53276 | 51732 | inactive
Kap-alpha3 (GeneID 41158) | DRSC16976 | 7.85 | 1.43e5 | 1.60e5 | active
Zip71B (GeneID 39626) | DRSC09686 | -0.642 | 68709 | 48922 | inactive
Zip71B (GeneID 39626) | DRSC29491 | 0.161 | 62038 | 65760 | inactive
Tim17b2 (GeneID 44381) | DRSC28544 | 0.0425 | 61369 | 62741 | inactive
ppk14 (GeneID 33887) | DRSC03238 | 0.716 | 49023 | 44205 | inactive
ppk14 (GeneID 33887) | DRSC39786 | -0.118 | 53738 | 55419 | inactive
put (GeneID 41772) | DRSC17039 | -0.0606 | 44257 | 47343 | inactive
put (GeneID 41772) | DRSC36611 | -0.571 | 40270 | 39028 | inactive
put (GeneID 41772) | DRSC36612 | -0.463 | 39885 | 43125 | inactive
KCNQ (GeneID 36071) | DRSC06230 | -0.372 | 80818 | 66171 | inactive
KCNQ (GeneID 36071) | DRSC25242 | 2.29 | 92929 | 85484 | active
ORMDL (GeneID 40404) | DRSC27778 | 0.236 | 60117 | 62433 | inactive
CG4615 (GeneID 31656) | DRSC17491 | -0.478 | 66840 | 63856 | inactive
CG4615 (GeneID 31656) | DRSC18376 | 5.72 | 1.05e5 | 1.17e5 | active
CG4615 (GeneID 31656) | DRSC26722 | -0.0333 | 60306 | 54281 | inactive
Sply (GeneID 46059) | DRSC07299 | 2.66 | 86754 | 73769 | active
Sply (GeneID 46059) | DRSC27378 | 0.365 | 67013 | 62197 | inactive
Fili (GeneID 5740472) | DRSC03907 | 0.151 | 43111 | 41736 | inactive
Fili (GeneID 5740472) | DRSC04132 | 1.72 | 77680 | 48114 | active
Fili (GeneID 5740472) | DRSC04445 | -0.0296 | 50155 | 43211 | inactive
Nrx-1 (GeneID 42646) | DRSC16184 | -0.232 | 42971 | 41736 | inactive
Ir10a (GeneID 32067) | DRSC18891 | -0.882 | 56774 | 53952 | inactive
Ir10a (GeneID 32067) | DRSC19478 | -0.235 | 37777 | 39593 | inactive
Ir10a (GeneID 32067) | DRSC19479 | -0.155 | 64285 | 62665 | inactive
sNPF-R (GeneID 40195) | DRSC10836 | 0.578 | 89687 | 70990 | inactive
CG31321 (GeneID 318681) | DRSC13028 | 0.127 | 47326 | 43999 | inactive
CG31321 (GeneID 318681) | DRSC27335 | -0.686 | 43468 | 58643 | inactive
GABA-B-R1 (GeneID 34878) | DRSC22038 | 0.244 | 49449 | 50824 | inactive
GABA-B-R1 (GeneID 34878) | DRSC39785 | 0.194 | 58163 | 59792 | inactive
AstA-R1 (GeneID 44126) | DRSC17278 | 0.131 | 63427 | 74913 | inactive
AstA-R1 (GeneID 44126) | DRSC17727 | -0.967 | 49761 | 50275 | inactive
CG6006 (GeneID 41962) | DRSC13137 | -0.494 | 36079 | 52775 | inactive
CG6006 (GeneID 41962) | DRSC15946 | 0.507 | 49449 | 51424 | inactive
wun (GeneID 35966) | DRSC07719 | 0.461 | 34816 | 33216 | inactive
wun (GeneID 35966) | DRSC36710 | 0.429 | 53790 | 52127 | inactive
wun (GeneID 35966) | DRSC36711 | -0.327 | 45560 | 40513 | inactive
mthl3 (GeneID 36961) | DRSC06997 | -2.2 | 14395 | 13881 | active
mthl3 (GeneID 36961) | DRSC24927 | 0.203 | 62727 | 57486 | inactive
